Data source: PubChem BioAssay AID1224830 (NIAID, 2016)
Assay: 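Host factors that control LPS-induced TNF expression in human macrophages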 (primary screen). Cells: human THP-1 monocytic leukaemia cells, TNF dual-luciferase reporter clone, PMA-differentiated to macrophage-like cells. Reagents: siRNA pool against human genes, 50 nM. Timing: LPS for 4 h, given about 3 days after siRNA transfection. Challenge: bacterial LPS (TLR4 ligand), 10 ng/ml. Detection: 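TNF firefly reporter luminescence divided by renilla, normalised to the plate median, then turned into a robust z-score for each replicate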. Reading the numbers: TNF reporter robust z-score: higher = stronger TNF reporter response to LPS. Call rule: 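Each well counts as active if its z-score is over 2.8 or under -1.5; controls are left without a call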.
The deposit covers about 18,000 reagents; this is a random part of them. In the full data, about 2,900 (16%) are marked active. 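Calls are made per well; low scores hint the gene aids the LPS response, high scores that it dampens it.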 Repeated entries: four replicate wells of each siRNA pool.

Target gene,TNF reporter robust z-score,call
MYT1 (myelin transcription factor 1),-1.11,inactive
MYT1 (myelin transcription factor 1),-0.14,inactive
MYT1 (myelin transcription factor 1),-0.26,inactive
MYT1 (myelin transcription factor 1),0.19,inactive
LRRC75B (leucine rich repeat containing 75B),-0.5,inactive
LRRC75B (leucine rich repeat containing 75B),0.78,inactive
LRRC75B (leucine rich repeat containing 75B),-0.57,inactive
LRRC75B (leucine rich repeat containing 75B),1.42,inactive
TEX11 (testis expressed 11),-1.03,inactive
TEX11 (testis expressed 11),-0.02,inactive
TEX11 (testis expressed 11),-0.97,inactive
TEX11 (testis expressed 11),-0.65,inactive
RHBDD1 (rhomboid domain containing 1),2.71,inactive
RHBDD1 (rhomboid domain containing 1),1.25,inactive
RHBDD1 (rhomboid domain containing 1),2.47,inactive
RHBDD1 (rhomboid domain containing 1),1.7,inactive
CHCT1 (CHD1 helical C-terminal domain containing 1),-1.15,inactive
CHCT1 (CHD1 helical C-terminal domain containing 1),-1.04,inactive
CHCT1 (CHD1 helical C-terminal domain containing 1),-0.6,inactive
CHCT1 (CHD1 helical C-terminal domain containing 1),-1.2,inactive
GALNT9 (polypeptide N-acetylgalactosaminyltransferase 9),0.43,inactive
GALNT9 (polypeptide N-acetylgalactosaminyltransferase 9),0.93,inactive
GALNT9 (polypeptide N-acetylgalactosaminyltransferase 9),0.16,inactive
GALNT9 (polypeptide N-acetylgalactosaminyltransferase 9),0.69,inactive
LTB4R (leukotriene B4 receptor),-1.08,inactive
LTB4R (leukotriene B4 receptor),-1.04,inactive
LTB4R (leukotriene B4 receptor),-1.07,inactive
LTB4R (leukotriene B4 receptor),-1.45,inactive
BLVRB (biliverdin reductase B),2.09,inactive
BLVRB (biliverdin reductase B),2.21,inactive
BLVRB (biliverdin reductase B),2.18,inactive
BLVRB (biliverdin reductase B),1.7,inactive
ZNF8 (zinc finger protein 8),-0.18,inactive
ZNF8 (zinc finger protein 8),-0.64,inactive
ZNF8 (zinc finger protein 8),-0.34,inactive
ZNF8 (zinc finger protein 8),-0.55,inactive
TIMP1 (TIMP metallopeptidase inhibitor 1),0.57,inactive
TIMP1 (TIMP metallopeptidase inhibitor 1),2.37,inactive
TIMP1 (TIMP metallopeptidase inhibitor 1),1.9,inactive
TIMP1 (TIMP metallopeptidase inhibitor 1),1.13,inactive
AQP11 (aquaporin 11),0.29,inactive
AQP11 (aquaporin 11),-0.52,inactive
AQP11 (aquaporin 11),0.07,inactive
APOOL (apolipoprotein O like),0.56,inactive
APOOL (apolipoprotein O like),1.05,inactive
APOOL (apolipoprotein O like),1.65,inactive
APOOL (apolipoprotein O like),2.89,active
PSTPIP1 (proline-serine-threonine phosphatase interacting protein 1),0.52,inactive
PSTPIP1 (proline-serine-threonine phosphatase interacting protein 1),1.03,inactive
PSTPIP1 (proline-serine-threonine phosphatase interacting protein 1),0.79,inactive
PSTPIP1 (proline-serine-threonine phosphatase interacting protein 1),0.81,inactive
OSCP1,-0.52,inactive
OSCP1,-0.46,inactive
OSCP1,-0.04,inactive
OSCP1,1.08,inactive
INHBA (inhibin subunit beta A),-0.11,inactive
INHBA (inhibin subunit beta A),-0.5,inactive
INHBA (inhibin subunit beta A),0.23,inactive
INHBA (inhibin subunit beta A),-0.03,inactive
BPIFC (BPI fold containing family C),-0.18,inactive
BPIFC (BPI fold containing family C),0.03,inactive
BPIFC (BPI fold containing family C),0.01,inactive
BPIFC (BPI fold containing family C),0.61,inactive
RDH11 (retinol dehydrogenase 11),0.16,inactive
RDH11 (retinol dehydrogenase 11),-0.33,inactive
RDH11 (retinol dehydrogenase 11),0.35,inactive
RDH11 (retinol dehydrogenase 11),-0.15,inactive
CHTF8 (chromosome transmission fidelity factor 8),-0.01,inactive
CHTF8 (chromosome transmission fidelity factor 8),0.36,inactive
CHTF8 (chromosome transmission fidelity factor 8),0.82,inactive
CHTF8 (chromosome transmission fidelity factor 8),1.55,inactive
CRYBA1 (crystallin beta A1),-0.05,inactive
CRYBA1 (crystallin beta A1),0.23,inactive
CRYBA1 (crystallin beta A1),0.21,inactive
DOCK5 (dedicator of cytokinesis 5),-1.28,inactive
DOCK5 (dedicator of cytokinesis 5),-0.82,inactive
DOCK5 (dedicator of cytokinesis 5),-1.15,inactive
DOCK5 (dedicator of cytokinesis 5),-1,inactive

Reagents listed above marked active, once more:
Target gene,TNF reporter robust z-score,call
APOOL (apolipoprotein O like),2.89,active
